Source: paper PMC11365556
No constants are given. Whether binding was seen depends on the method and setting. In cells and extracts the contact can be indirect. Some binding calls cover weakened binding; strength is not graded here.

T1: LPCAT3 as used in the co-immunoprecipitations (Fig. 2A, Fig. S6B) (human) (UniProt Q6P1A2)
T1 sequence: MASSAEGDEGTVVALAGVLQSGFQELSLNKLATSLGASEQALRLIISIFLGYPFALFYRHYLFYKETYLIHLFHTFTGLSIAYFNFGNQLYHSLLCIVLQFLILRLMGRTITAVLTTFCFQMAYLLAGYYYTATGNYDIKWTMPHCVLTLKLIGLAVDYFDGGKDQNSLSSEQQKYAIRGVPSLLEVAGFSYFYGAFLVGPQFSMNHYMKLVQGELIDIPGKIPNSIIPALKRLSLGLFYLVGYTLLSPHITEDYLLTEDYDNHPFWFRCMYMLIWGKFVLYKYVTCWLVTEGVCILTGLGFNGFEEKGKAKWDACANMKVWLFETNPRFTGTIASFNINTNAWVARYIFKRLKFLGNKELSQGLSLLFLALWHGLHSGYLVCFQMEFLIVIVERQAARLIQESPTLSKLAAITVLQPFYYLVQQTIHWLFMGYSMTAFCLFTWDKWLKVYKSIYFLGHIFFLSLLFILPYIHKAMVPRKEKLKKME

T2: CEPT1 wild type as used in the co-immunoprecipitations and pull-downs (Fig. 2A, S4N, 5A-D, S7G) (human) (UniProt Q9Y6K0)
T2 sequence: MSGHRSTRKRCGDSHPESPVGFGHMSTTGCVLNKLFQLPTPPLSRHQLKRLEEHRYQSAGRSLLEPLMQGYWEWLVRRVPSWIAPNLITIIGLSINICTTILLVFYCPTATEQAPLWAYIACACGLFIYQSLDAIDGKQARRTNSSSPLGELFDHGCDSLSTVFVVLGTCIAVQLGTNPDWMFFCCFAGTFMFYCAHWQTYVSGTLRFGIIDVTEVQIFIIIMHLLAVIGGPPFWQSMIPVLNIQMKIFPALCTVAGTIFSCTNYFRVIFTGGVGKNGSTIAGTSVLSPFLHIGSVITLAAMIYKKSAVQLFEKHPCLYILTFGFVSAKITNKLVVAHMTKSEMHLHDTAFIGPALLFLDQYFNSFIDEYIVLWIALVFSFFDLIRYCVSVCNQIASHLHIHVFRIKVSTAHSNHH


Key:
[1] = target: T1, LPCAT3 as used in the co-immunoprecipitations (Fig. 2A, Fig. S6B) (human); test: co-IP; S protein beads, SFB-tagged proteins as baits (Fig. 2A); proteins detected by Western blot; Fig. S4N and S6B called co-immunoprecipitation in the text
[2] = target: T2, CEPT1 wild type as used in the co-immunoprecipitations and pull-downs (Fig. 2A, S4N, 5A-D, S7G) (human); test: pull-down; S protein beads, SFB-tagged proteins as baits; indicated proteins detected by Western blot (Fig. 5A-D)

Binder | binding [1] | binding [2]
ABHD3 as used in the pull-down (Fig. 5A-D) (enzyme, UniProt Q8WU67 1-409) MQRLAMDLRMLSRELSLYLEHQVRVGFFGSGVGLSLILGFSVAYAFYYLSSIAKKPQLVTGGESFSRFLQDHCPVVTETYYPTVWCWEGRGQTLLRPFITSKPPVQYRNELIKTADGGQISLDWFDNDNSTCYMDASTRPTILLLPGLTGTSKESYILHMIHLSEELGYRCVVFNNRGVAGENLLTPRTYCCANTEDLETVIHHVHSLYPSAPFLAAGVSMGGMLLLNYLGKIGSKTPLMAAATFSVGWNTFACSESLEKPLNWLLFNYYLTTCLQSSVNKHRHMFVKQVDMDHVMKAKSIREFDKRFTSVMFGYQTIDDYYTDASPSPRLKSVGIPVLCLNSVDDVFSPSHAIPIETAKQNPNVALVLTSYGGHIGFLEGIWPRQSTYMDRVFKQFVQAMVEHGHELS |  | binds
DDHD2 as used in the pull-down (Fig. 5A-D) (enzyme, UniProt O94830 1-711) MSSVQSQQEQLSQSDPSPSPNSCSSFELIDMDAGSLYEPVSPHWFYCKIIDSKETWIPFNSEDSQQLEEAYSSGKGCNGRVVPTDGGRYDVHLGERMRYAVYWDELASEVRRCTWFYKGDKDNKYVPYSESFSQVLEETYMLAVTLDEWKKKLESPNREIIILHNPKLMVHYQPVAGSDDWGSTPTEQGRPRTVKRGVENISVDIHCGEPLQIDHLVFVVHGIGPACDLRFRSIVQCVNDFRSVSLNLLQTHFKKAQENQQIGRVEFLPVNWHSPLHSTGVDVDLQRITLPSINRLRHFTNDTILDVFFYNSPTYCQTIVDTVASEMNRIYTLFLQRNPDFKGGVSIAGHSLGSLILFDILTNQKDSLGDIDSEKDSLNIVMDQGDTPTLEEDLKKLQLSEFFDIFEKEKVDKEALALCTDRDLQEIGIPLGPRKKILNYFSTRKNSMGIKRPAPQPASGANIPKESEFCSSSNTRNGDYLDVGIGQVSVKYPRLIYKPEIFFAFGSPIGMFLTVRGLKRIDPNYRFPTCKGFFNIYHPFDPVAYRIEPMVVPGVEFEPMLIPHHKGRKRMHLELREGLTRMSMDLKNNLLGSLRMAWKSFTRAPYPALQASETPEETEAEPESTSEKPSDVNTEETSVAVKEEVLPINVGMLNGGQRIDYVLQEKPIESFNEYLFALQSHLCYWESEDTVLLVLKEIYQTQGIFLDQPLQ |  | binds

Now from value to binder:

binding [1] | binding [2] | Binder
binds |  | EPT1 as used in the co-immunoprecipitation (Fig. S6B) (enzyme, UniProt Q9C0D9 1-397) MAGYEYVSPEQLAGFDKYKYSAVDTNPLSLYVMHPFWNTIVKVFPTWLAPNLITFSGFLLVVFNFLLMAYFDPDFYASAPGHKHVPDWVWIVVGILNFVAYTLDGVDGKQARRTNSSTPLGELFDHGLDSWSCVYFVVTVYSIFGRGSTGVSVFVLYLLLWVVLFSFILSHWEKYNTGILFLPWGYDISQVTISFVYIVTAVVGVEAWYEPFLFNFLYRDLFTAMIIGCALCVTLPMSLLNFFRSYKNNTLKLNSVYEAMVPLFSPCLLFILSTAWILWSPSDILELHPRVFYFMVGTAFANSTCQLIVCQMSSTRCPTLNWLLVPLFLVVLVVNLGVASYVESILLYTLTTAFTLAHIHYGVRVVKQLSSHFQIYPFSLRKPNSDULGMEEKNIGL
 | binds | DDHD1 as used in the pull-down (Fig. 5A-D) (enzyme, UniProt Q8NEL9 1-900) MNYPGRGSPRSPEHNGRGGGGGAWELGSDARPAFGGGVCCFEHLPGGDPDDGDVPLALLRGEPGLHLAPGTDDHNHHLALDPCLSDENYDFSSAESGSSLRYYSEGESGGGGSSLSLHPPQQPPLVPTNSGGGGATGGSPGERKRTRLGGPAARHRYEVVTELGPEEVRWFYKEDKKTWKPFIGYDSLRIELAFRTLLQTTGARPQGGDRDGDHVCSPTGPASSSGEDDDEDRACGFCQSTTGHEPEMVELVNIEPVCVRGGLYEVDVTQGECYPVYWNQADKIPVMRGQWFIDGTWQPLEEEESNLIEQEHLNCFRGQQMQENFDIEVSKSIDGKDAVHSFKLSRNHVDWHSVDEVYLYSDATTSKIARTVTQKLGFSKASSSGTRLHRGYVEEATLEDKPSQTTHIVFVVHGIGQKMDQGRIIKNTAMMREAARKIEERHFSNHATHVEFLPVEWRSKLTLDGDTVDSITPDKVRGLRDMLNSSAMDIMYYTSPLYRDELVKGLQQELNRLYSLFCSRNPDFEEKGGKVSIVSHSLGCVITYDIMTGWNPVRLYEQLLQKEEELPDERWMSYEERHLLDELYITKRRLKEIEERLHGLKASSMTQTPALKFKVENFFCMGSPLAVFLALRGIRPGNTGSQDHILPREICNRLLNIFHPTDPVAYRLEPLILKHYSNISPVQIHWYNTSNPLPYEHMKPSFLNPAKEPTSVSENEGISTIPSPVTSPVLSRRHYGESITNIGKASILGAASIGKGLGGMLFSRFGRSSTTQSSETSKDSMEDEKKPVASPSATTVGTQTLPHSSSGFLDSAYFRLQESFFNLPQLLFPENVMQNKDNALVELDHRIDFELREGLVESRYWSAVTSHTAYWSSLDVALFLLTFMYKHEHDDDAKPNLDPI
